Data: patent US9745339B2 (GRAFFINITY PHARMACEUTICALS GMBH, priority 2012, dated 2017)

Key:
[1] = test system: Bevacizumab spiked into host cell proteins; test: Purification of antibody from cell culture supernatant by column chromatography; conditions: for purity: Bevacizumab 0.12 mg/ml spiked into host cell proteins (20% purity feed), elution 50 mM glycine pH 3.0; for yield: elution peak area relative to Protein A column taken as 100%, runs with pure antibody
[2] = test system: poly-IgG from human serum (h-poly-IgG); test: Microtiter plate chromatography of resins: binding and elution of human poly-IgG; conditions: mass eluted (glycine pH 2.5) / mass injected
Procedure: (§1) Resins were assessed in packed mode by microtiter plate chromatography. For each column, approximately 30 μl of resin were transferred to a 384-well filter plate and sealed with appropriate top fits. Columns with rProtein A SEPHAROSE 4 FF and MABSORBENT A2P HF were included as controls.
(§2) Either 3.3 cv of whole IgGs dissolved at 0.5 mg ml^−1 in PBS or undiluted host cell proteins (HCP) were injected onto columns.
(§3) Unbound protein was washed from columns with 5 cv of PBS prior to elution with 5 cv of glycine buffer at pH 2.5. […] During injection of samples, speed was reduced to 10 g and centrifugation time increased to 5-10 min. Effluent fractions were collected in 384-well plates and concentrations of protein were analyzed by Bradford assay. Protein masses mi, mft and me (see below) were calculated as the product of fraction volume and measured protein concentration.
(§4) The fraction of bound protein was calculated as the difference between the total mass of protein injected mi and the mass of protein detected in the flowthrough mft, divided by the total mass of protein injected.
(§5) The yield of protein was calculated as the mass of protein eluted me, divided by the mass of protein injected mi.
(§6) The fraction of bound protein and the yield of protein were calculated for each resin based on data for whole IgG-antibodies. In the case of host cell proteins, only the fraction of bound protein is given. Selectivity of resins was calculated from data for Bevacizumab whole IgG and host cell proteins. Due to limited experimental precision, selectivity was truncated for values beyond 10.

Tocilizumab = test: Microtiter plate chromatography of resins: binding and elution of Tocilizumab; conditions: mass eluted (glycine pH 2.5) / mass injected
Procedure: as §1, §2, §3, §4, §5, §6

NCCCn1c(=O)[nH]c2cc(C(=O)Nc3nnc(-c4ccco4)s3)ccc21 [Ligand L24, 1-(3-Amino-1-propyl)-2-oxo-2,3-dihydrobenzimidazole-5-carboxylic acid N-[5-(2-furyl)-1,3,4-thiadiazol-2-yl] amide]
purity [1]: 91% | yield [1]: 100% | h-poly-IgG Yield [2]: 99% | Tocilizumab Yield (Tocilizumab): 93%

Cc1nc2cc(C(=O)Nc3nnc(-c4ccco4)s3)ccc2n1CCCN [Ligand L39, 1-(3-Amino-1-propyl)-2-methylbenzimidazole-5-carboxylic acid N-[5-(2-furyl)-1,3,4-thiadiazol-2-yl] amide]
purity [1]: 91% | yield [1]: 100% | h-poly-IgG Yield [2]: 98% | Tocilizumab Yield (Tocilizumab): 99%

NCCCNc1ccc(C(=O)Nc2nnc(-c3ccco3)s2)cn1 [Ligand L19, 6-[(3-Amino-1-propyl)amino]nicotinic acid N-[5-(2-furyl)-1,3,4-thiadiazol-2-yl]amide]
purity [1]: 80% | yield [1]: 100% | h-poly-IgG Yield [2]: 96% | Tocilizumab Yield (Tocilizumab): 91%
